{"source": "PubChem BioAssay AID1224826 – NIAID | 2016", "aim": "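Knock-downs that raise or lower Tnf reporter signal after endotoxin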 (primary screen)", "system": "RAW264.7 G9 macrophages from mouse bearing reporters for p65 (GFP) and the Tnf promoter (mCherry)", "reagents": "siRNA pool against mouse genes, 100 nM", "duration": "16 h of LPS stimulation, after 2 days of siRNA transfection", "conditions": "bacterial lipopolysaccharide (Salmonella minnesota R595), 10 ng/ml", "measured": "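Imaged Tnf reporter mCherry in nuclei, minus background, normalised per plate to the median and expressed as robust z-scores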", "reading the numbers": "Tnf reporter robust z-score: higher = stronger Tnf promoter reporter signal after LPS", "hit rule": "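a well counts as active at a score of -1.3 or below (Tlr4 knock-down control median) or above 3 (raised signal); controls and wells holding fewer than 50 cells are excluded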", "meaning of the calls": "active = Tnf reporter clearly lowered or raised; inactive = no clear change in Tnf reporter", "note": "The deposit covers about 17,000 reagents; this is a part drawn at random. In the full data, about 1,110 (6.6%) are marked active. 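Active means lowered or raised reporter signal; replicate intensities are raw and not normalised per plate.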 Unmarked entries are inactive. Not all columns of the deposit are shown."}
{"Gene": "Arglu1", "Tnf reporter robust z-score": 0.35, "fewer than 50 cells in well": "enough cells in well"}
{"Gene": "Cdk3", "Tnf reporter robust z-score": -1.11, "fewer than 50 cells in well": "enough cells in well"}
{"Gene": "Sesn3", "fewer than 50 cells in well": "fewer than 50 cells per well; well left out of calls"}
{"Gene": "Or5b104", "Tnf reporter robust z-score": -1.14, "fewer than 50 cells in well": "enough cells in well"}
{"Gene": "Eif5a", "Tnf reporter robust z-score": -1.11, "fewer than 50 cells in well": "enough cells in well"}
{"Gene": "Ssr2", "Tnf reporter robust z-score": 0.11, "fewer than 50 cells in well": "enough cells in well"}
{"Gene": "Cenpp", "Tnf reporter robust z-score": 2.24, "fewer than 50 cells in well": "enough cells in well"}
{"Gene": "Rps15a", "Tnf reporter robust z-score": "-1.61 (active)", "fewer than 50 cells in well": "enough cells in well"}
{"Gene": "Jund", "Tnf reporter robust z-score": 0.29, "fewer than 50 cells in well": "enough cells in well"}
{"Gene": "Top3b", "Tnf reporter robust z-score": -0.84, "fewer than 50 cells in well": "enough cells in well"}
{"Gene": "Usp44", "Tnf reporter robust z-score": 1.27, "fewer than 50 cells in well": "enough cells in well"}

The list goes on, starting with the last 2 of the part before.
{"Gene": "Top3b", "Tnf reporter robust z-score": -0.84, "fewer than 50 cells in well": "enough cells in well"}
{"Gene": "Usp44", "Tnf reporter robust z-score": 1.27, "fewer than 50 cells in well": "enough cells in well"}
{"Gene": "Ush1c", "Tnf reporter robust z-score": -0.67, "fewer than 50 cells in well": "enough cells in well"}
{"Gene": "Or1e33", "Tnf reporter robust z-score": 0.99, "fewer than 50 cells in well": "enough cells in well"}
{"Gene": "Rhot2", "fewer than 50 cells in well": "fewer than 50 cells per well; well left out of calls"}
{"Gene": "Gprc5c", "Tnf reporter robust z-score": -1.05, "fewer than 50 cells in well": "enough cells in well"}
{"Gene": "Astn2", "Tnf reporter robust z-score": -1.06, "fewer than 50 cells in well": "enough cells in well"}
{"Gene": "Fasl", "Tnf reporter robust z-score": -1.16, "fewer than 50 cells in well": "enough cells in well"}
{"Gene": "Fbp2", "Tnf reporter robust z-score": 0.37, "fewer than 50 cells in well": "enough cells in well"}
{"Gene": "Tuba3a", "Tnf reporter robust z-score": -0.37, "fewer than 50 cells in well": "enough cells in well"}
{"Gene": "Ivns1abp", "Tnf reporter robust z-score": 0.38, "fewer than 50 cells in well": "enough cells in well"}
{"Gene": "Zfp566", "Tnf reporter robust z-score": -0.82, "fewer than 50 cells in well": "enough cells in well"}
{"Gene": "Avil", "Tnf reporter robust z-score": -1.15, "fewer than 50 cells in well": "enough cells in well"}
{"Gene": "Xrcc6", "Tnf reporter robust z-score": -0.23, "fewer than 50 cells in well": "enough cells in well"}
{"Gene": "Dnpep", "Tnf reporter robust z-score": 2.82, "fewer than 50 cells in well": "enough cells in well"}
{"Gene": "Lgi4", "Tnf reporter robust z-score": 0.52, "fewer than 50 cells in well": "enough cells in well"}
{"Gene": "Gpr37", "Tnf reporter robust z-score": 1.03, "fewer than 50 cells in well": "enough cells in well"}
{"Gene": "Sytl3", "Tnf reporter robust z-score": -0.72, "fewer than 50 cells in well": "enough cells in well"}
